# Results reported in PubChem BioAssay AID504467 (National Center for Advancing Translational Sciences (NCATS), 2011).
# About 7,700 (2.3%) of roughly 330,000 compounds were called active. The inconclusive results got no clear call from the source; some entries with a clear call stand among them for comparison. Calls come from the whole dose curve; as a rule, active = well fitted inhibition curve with a large enough effect; inconclusive = small, poorly fitted or top-dose-only effect, or effect the other way; inactive = flat fitted curve, though single readings scatter. Potencies of inconclusive entries are doubtful fits and often do not repeat.
# Assay: qHTS screen for small molecules that inhibit ELG1-dependent DNA repair in human embryonic kidney (HEK293T) cells expressing luciferase-tagged ELG1; note: nearly all actives have a fitted effect of over 55% in size
# Conditions: HEK293T ELG1-luciferase reporter, luminescence, 16 h, DNA damage induced by 5-fluorouridine; series mostly up to 46.1 µM
# How it was run: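 DMSO vehicle served as the neutral condition. Each well held 2,000 cells given 5-fluorouridine plus compound; after 16 hr at 37 °C/5% CO2, ONE-Glo was added and luciferase measured 30 min later.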
# Potency is the fitted concentration of half-maximal effect.
row,Compound,Potency
1,Cc1ccc(CC(=O)c2ccc(Cl)cc2)cc1,"inconclusive: 16.4 µM [activator, partial curve]"
2,COc1cc(NS(=O)(=O)c2cn(C)cn2)cc(OC)c1,"inconclusive: 20.6 µM [activator, partial curve, poor fit]"
3,O=C(NCCSc1ccccc1)c1ccc(CN2CCOCC2)cc1,"inconclusive: 2.59 µM [activator, full curve]"
4,O=C1CC(c2cccc(Br)c2)c2cc3c(cc2N1)CCC3 (configuration not stated),"inconclusive: 6.51 µM [inhibitor, single point]"
5,COc1ccc(S(=O)(=O)Nc2cccc(N(C)S(C)(=O)=O)c2)cc1Br,"inconclusive: 23.1 µM [inhibitor, partial curve, poor fit]"
6,Cc1cccc(OCC2Cn3c(nc4c3c(=O)[nH]c(=O)n4C)O2)c1 (configuration not stated),"inconclusive: 8.2 µM [inhibitor, partial curve]"
7,O=[N+]([O-])c1ccc(NC(=S)N/C(=N/CS(=O)(=O)c2ccccc2)c2ccccc2)cc1,"inconclusive: 29.1 µM [activator, single point]"
8,O=C(CCn1c(=O)oc2ccccc21)N1CCOCC1,"inconclusive: 18.4 µM [activator, partial curve, poor fit]"
9,COc1ccccc1Nc1nc2ccccc2[nH]1,"inconclusive: 14.6 µM [activator, partial curve]"
10,Cc1ccc(Nc2ccc(-n3ccnc3)nn2)cc1C,"inconclusive: 18.4 µM [activator, single point]"
11,CN(C)CCCNC(=S)Nc1ccc(Br)cc1,"inconclusive: 29.1 µM [activator, single point]"
12,O=C(NC1=NCCS1)c1ccc(Cl)c(Cl)c1,"inconclusive: 2.91 µM [activator, full curve]"
13,Clc1ccc(-c2nc(Cc3ccccc3)no2)cc1,"inconclusive: 20.6 µM [activator, partial curve]"
14,CC1C(=O)N2CCCc3cc(S(=O)(=O)N4CCCCC4)cc1c32 (configuration not stated),"inconclusive: 0.164 µM [inhibitor, single point]"
15,C/C(CCc1ccccc1)=N\NC(=S)NCCc1ccccc1,inactive
16,COc1ccc(CNC(=O)c2cc3c(C)nc4ccccc4c3o2)c(OC)c1,active: 5.8 µM
17,O=C(Nc1nccs1)c1cccc(NC(=O)c2ccco2)c1,active: 23.1 µM
18,C#CCOCCOCCOCCNc1nc(N2CCN(C(=O)[C@H]([C@@H](C)CC)n3cc([C@@H](N)CC(C)C)nn3)CC2)nc(N2CCN(C(=O)[C@H](Cc3cc4ccccc4[nH]3)n3cc([C@@H](N)C(C)CC)nn3)CC2)n1 (some centres not stated),"inconclusive: 32.6 µM [activator, partial curve, poor fit]"
19,CCn1nc(C(=O)NNC(=O)C2CSC3(C)CCC(=O)N23)c2ccccc2c1=O (configuration not stated),inactive
20,CCCCOc1ccc(Br)cc1/C(C)=N/NC1=NCCN1,"inconclusive: 4.61 µM [inhibitor, full curve, poor fit]"
21,Cc1ccc(Cn2ccc(=O)c(Cc3c(Cl)cccc3Cl)c2C)cc1,inactive
22,Cc1ccc(/C=C(\NC(=O)c2ccccc2)C(=O)N2CCCC2C(=O)O)cc1 (configuration not stated),inactive
23,O=C(Nc1ccc(Cl)cc1)c1cc2c(cc1O)[nH]c1ccccc12,"inconclusive: 5.8 µM [inhibitor, full curve]"
24,N#C/C(=C\c1ccc(-c2cccc([N+](=O)[O-])c2)o1)C(=O)Nc1nc(-c2cccs2)cs1,inactive

row,Compound,Potency
1,O=C(Nc1nccs1)C1CC(=O)N(c2ccc(Cl)cc2)C1 (configuration not stated),inactive
2,Cn1cc([C@@H]2C[C@H]3CN(Cc4cccc(Cl)c4)C(=O)[C@]34CCCN24)c(-c2ccccc2)n1,"inconclusive: 11.6 µM [inhibitor, partial curve]"
3,Cc1ccccc1C(=O)NC(=S)Nc1ccc(Cc2ccncc2)cc1,"inconclusive: 32.6 µM [inhibitor, single point]"
4,COc1ccc(/C=N/NC(=S)Nc2ccccc2)cc1,"inconclusive: 2.91 µM [activator, partial curve]"
5,O=C(CN1CCN(c2ncccn2)CC1)N1CCc2ccccc21,"inconclusive: 11.6 µM [activator, partial curve, poor fit]"
6,CCOC(=O)/C(=N/Nc1ccc(C)cc1)S(=O)(=O)c1ccc(Cl)cc1,"inconclusive: 13 µM [activator, partial curve]"
7,O=C(COc1ccc(Br)cc1Br)NC1CCS(=O)(=O)C1 (configuration not stated),"inconclusive: 4.11 µM [inhibitor, single point]"
8,COC(=O)c1cc(NC(=O)Cc2ccc(OC)c(OC)c2)cc(C(=O)OC)c1,"inconclusive: 11.6 µM [inhibitor, single point]"
9,CCCn1nnc(NC(=O)c2ccc(OC)cc2)n1,"inconclusive: 16.4 µM [activator, partial curve]"
10,COC(=O)c1ccc(/C(O)=C(\C#N)c2nc3ccccc3s2)cc1,"inconclusive: 9.2 µM [activator, partial curve]"
11,CCOc1ccc(NC(=S)Nc2ccc(OC)cc2)cc1,inactive
12,CCOc1ccc(NC(=O)CN(C)C(=O)c2cc(-c3ccc(OC)cc3)nc3ccccc23)cc1OCC,active: 9.2 µM
13,COc1cnc(-c2ccccn2)nc1Sc1ccc(F)cc1,active: 20.6 µM
14,COc1cc(/C=N\Nc2nc3ccccc3o2)cc(OC)c1OC,"inconclusive: 18.4 µM [inhibitor, partial curve]"
15,Cc1cc(C)cc(OCC(=O)N2CCCCCC2)c1,inactive
16,COCCCn1cnc2c(c1=O)c1nc3ccccc3nc1n2CCc1ccccc1,"inconclusive: 20.6 µM [inhibitor, partial curve]"
17,c1ccc2c(c1)ccc1ncccc12,inactive
18,CCOC(=O)c1c(-c2ccccc2)csc1NC(=O)CSc1nnnn1C,active: 4.11 µM
19,CCOC(=O)N1CCN(S(=O)(=O)c2ccc(C)c(C)c2)CC1,inactive
20,COc1ccccc1Cn1c(=S)[nH]c2cc(C(=O)N3CCN(c4ccccc4OC)CC3)ccc2c1=O,inactive
21,COC(=O)Oc1ccc(/C=N/NC(=O)CSCc2ccc(Cl)cc2)cc1OC,inactive
22,Nc1nc2c(F)c(F)c(F)cc2s1,inactive
23,COc1ccccc1NC(=O)c1ccc(CN(c2cc(Cl)ccc2C)S(=O)(=O)c2ccccc2)cc1,inactive
24,COc1ccc(-n2nc(C(=O)O)c3ccccc3c2=O)cc1,inactive

row,Compound,Potency
1,C/C(=N\NC(=O)c1cc(-c2cccnc2)nc2ccccc12)c1ccc(O)cc1O,"inconclusive: 3.26 µM [inhibitor, partial curve, poor fit]"
2,Cc1csc2nc(CCNS(=O)(=O)c3cccs3)cn12,"inconclusive: 20.6 µM [activator, partial curve]"
3,C=CCn1c(C)nc2ccccc2c1=O,inactive
4,CO/N=C/c1ccc(N2CCN(C(=O)c3cccc(C(F)(F)F)c3)CC2)c([N+](=O)[O-])c1,"inconclusive: 29.1 µM [inhibitor, single point]"
5,CN1CCN(C(=O)c2cc(COc3c(F)cccc3F)on2)CC1c1ccccc1 (configuration not stated),"inconclusive: 23.1 µM [inhibitor, single point]"
6,Cc1ccc(S(=O)(=O)N2CCOCC2)cc1NC(=O)CSc1nnc(C2CC2)n1C1CC1,inactive
7,CCOc1ccc2nc(/N=C/c3c(C)[nH]n(-c4ccccc4)c3=O)sc2c1,"inconclusive: 16.4 µM [activator, partial curve]"
8,Oc1c(CN2CCCC2)cc(COCc2ccccc2)c2cccnc12,"inconclusive: 2.06 µM [inhibitor, full curve, poor fit]"
9,CCOc1ccc(CN2C(=O)c3ccccc3C2=O)cc1C(=O)N1CCC(C(N)=O)CC1,inactive
10,COc1cc(C#N)ccc1OCC(=O)Nc1cccc(S(=O)(=O)N2CCCC2)c1,inactive
11,COC(=O)c1ccc(-c2c(-c3ccccc3)ncc3cc(F)ccc23)cc1,"inconclusive: 2.06 µM [inhibitor, partial curve, poor fit]"
12,COc1ccccc1N(C)S(=O)(=O)c1ccc(C(=O)OCC(=O)N2CCCCCC2)cc1,inactive
13,Cc1ccccc1OCC(=O)Nc1ccc2c(c1)n(C)c(=O)n2C,inactive
14,CCOc1ccc(-c2cc3cc(OC)c(OC)cc3c(C)n2)cc1,"inconclusive: 4.11 µM [activator, partial curve, poor fit]"
15,CC(=O)Nn1c(C)nnc1-n1nc(C)cc1C,"inconclusive: 29.1 µM [activator, single point]"
16,CC(=O)NC(=S)Nc1ccccc1N1CCN(C(=O)c2ccccc2)CC1,"inconclusive: 20.6 µM [inhibitor, single point]"
17,COc1ccc(-c2nc(-c3ccccc3OC)no2)cc1OC,"inconclusive: 22.4 µM [inhibitor, single point]"
18,CC(Oc1ccc(C#N)cc1)C(=O)N1CC=C(c2ccccc2)CC1 (configuration not stated),"inconclusive: 23.1 µM [inhibitor, partial curve]"
19,COc1cc(C(=O)N=c2sccn2C)c([N+](=O)[O-])cc1OC,inactive
20,N#Cc1ccc(N/N=C/c2cn(-c3ccccc3)nc2-c2ccccc2)c([N+](=O)[O-])c1,inactive
21,O=C(c1cc2ccccc2oc1=O)N(Cc1cccs1)C1CCS(=O)(=O)C1 (configuration not stated),"inconclusive: 9.2 µM [activator, single point]"
22,COc1ccc2nc(-c3ccccc3)cc(OC)c2c1,"inconclusive: 16.4 µM [activator, partial curve]"
23,Oc1c(C(c2ccccc2)N2CCc3ccccc3C2)sc2ncnn12 (configuration not stated),inactive
24,O=C(/C=C/c1ccc(Cl)cc1)c1ccc([N+](=O)[O-])o1,"inconclusive: 35.5 µM [inhibitor, single point]"

# Reprinted from the entries so far, three compounds:
row,Compound,Potency
1,O=C(Nc1nccs1)C1CC(=O)N(c2ccc(Cl)cc2)C1 (configuration not stated),inactive
2,Cn1cc([C@@H]2C[C@H]3CN(Cc4cccc(Cl)c4)C(=O)[C@]34CCCN24)c(-c2ccccc2)n1,"inconclusive: 11.6 µM [inhibitor, partial curve]"
3,Cc1ccccc1C(=O)NC(=S)Nc1ccc(Cc2ccncc2)cc1,"inconclusive: 32.6 µM [inhibitor, single point]"
